At least one compound was matched to its structure with a doubt left.
Tested on: Patient-Derived Micro-Organospheres (single tumor biopsy)
Assay: multi-drug screen (27 drugs) on Patient-Derived Micro-Organospheres from a single tumor biopsy
Type: cell-based, human
Details: Example 4, FIG. 24; this particular tumor

Cc1ccc(Nc2nccc(N(C)c3ccc4c(C)n(C)nc4c3)n2)cc1S(N)(=O)=O [Pazopanib]
toxicity ranking in panel of 27 drugs: largest toxicity

— patent US20230003716A1, “METHODS AND APPARATUSES FOR PATIENT-DERIVED MICROORGANOSPHERES” (Xilis, Inc., priority 2020, published 2023)
